# Laboratory results from patent US20130035361A1, “USE OF ERGOTHIONEINE AS A PRESERVATIVE IN FOODS AND BEVERAGES” (priority 2007, published 2013).
# Assay: Taste of wine / food and beverages after storage
# Details: Pinot noir wines, SO2 replaced in whole or in part at bottling; after 18 months of storage
smiles,measurement,value
C[N+](C)(C)[C@@H](Cc1c[nH]c(=S)[nH]1)C(=O)[O-] [L-ergothioneine],impact on taste of the resultant wine,did not result in any deleterious impact on taste
